Laboratory results published in the supplement of paper PMC12889115.
Some of the results follow. These are raw signals, not scaled to a control.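 In the initial screen, polymyxin B was used at a concentration that permeabilizes Salmonella's outer membrane but not its inner membrane. Maximum growth was set by DMSO wells with or without polymyxin B. Since plates varied, data were ranked per plate, and compounds giving the lowest OD600 advanced as hits.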

Tested on: Salmonella enterica serovar Typhimurium SL1344
Experiment: bacterial growth OD600 after 18 h with compound and polymyxin B; higher = more bacterial growth (less inhibition)
Conditions: 50 µM, Mueller-Hinton broth

| SMILES | bacterial growth OD600 (polymyxin B 1 µg/mL) | bacterial growth OD600 (polymyxin B 0.75 µg/mL) |
| --- | --- | --- |
| Cc1ccccc1CC(=O)NC1CC(=O)N(Cc2ccccc2Cl)C1 (configuration not stated) | 0.962 |  |
| CC(=O)NCCNC(=O)C1CCCN(c2nc(-c3ccccc3)nc3c2CCC3)C1 (configuration not stated) | 0.916 |  |
| O=C(NCC1CCOCC1)C1CCN(c2nc(-c3ccccc3)nc3c2CCC3)CC1 |  | 0.824 |
| Cc1nc(C)c(C(=O)N2CCCC(Nc3ccc4c(c3)OCCO4)C2)s1 (configuration not stated) | 0.971 |  |
| COCCN1C(=O)NC(Cc2ccc(F)cc2)(C2CCN(C(=O)c3ccc(C)cc3C)CC2)C1=O (configuration not stated) |  | 0.854 |
| CSCCNC(=O)c1coc(COc2ccccc2F)n1 | 0.982 |  |
| Cc1ncc2c(c1CNS(=O)(=O)c1cccs1)CCN(C(=O)c1ccc(-n3cccn3)cc1)C2 |  | 0.878 |
| COc1ccccc1-c1ccnc(-n2ncc(C(=O)N3CCN(Cc4ccccc4)CC3)c2C)n1 |  | 0.838 |
| COc1cccc(C(=O)N2CCCC(CCC(=O)N3CCN(c4ccccn4)CC3)C2)c1 (configuration not stated) |  | 0.795 |
| Cc1nc2ccccc2n1Cc1cc(C(=O)NCCCO)no1 | 0.967 |  |
| COc1cccc(CC(C2CCN(C(=O)c3ccccc3C)CC2)N(C)C(=O)c2ccn(C)n2)c1 (configuration not stated) |  | 0.946 |
| COC(=O)CCCC(=O)N1CCC2(CCCN(Cc3ccccc3F)C2=O)C1 (configuration not stated) | 0.973 |  |
| CSc1ncccc1C(=O)N1CCc2onc(-c3ccccc3F)c2C1 |  | 0.468 |
| CCCCNC(=O)N1CCC(C2CCN(Cc3cccnc3)CC2)C1 (configuration not stated) |  | 0.97 |
| O=C(/C=C/c1cccc(F)c1)N1CCCC(c2nc(-c3cccnc3)ncc2-c2ccccc2F)C1 (configuration not stated) |  | 0.556 |
| CN(CC1CCCCO1)C(=O)c1coc(COc2ccc(F)cc2)n1 (configuration not stated) | 0.954 |  |

| SMILES | bacterial growth OD600 (polymyxin B 1 µg/mL) | bacterial growth OD600 (polymyxin B 0.75 µg/mL) |
| --- | --- | --- |
| COc1cccc(-c2cc(CC3(O)CCN(C4Cc5ccccc5C4)CC3)on2)c1 |  | 0.521 |
| Cc1nc(CN(C)C(=O)c2cc(Cn3c(C)nc4ccccc43)on2)cs1 | 0.975 |  |
| COc1ccccc1N1CCN(C(=O)Cn2nnnc2CN2CCOCC2)C(C)C1 (configuration not stated) |  | 0.786 |
| Cc1cccc(-c2cnc(C)nc2C2CCCN(C(=O)c3ccc(C)c(C)c3)C2)c1 (configuration not stated) |  | 0.98 |
| COc1cccc(N2C(=O)CN(C(=O)c3csc4c3CCCC4)CC2C)c1 (configuration not stated) |  | 0.719 |
| COc1ccc(NC2CCCN(C(=O)CCc3cccc(Cl)c3)C2)cc1 (configuration not stated) | 0.206 |  |
| O=C(c1csc2nc(-c3ccc(C(F)(F)F)cc3)cn12)N1CCSCC1 | 0.007 |  |
| COc1cccc(CN2CCC(C(Cc3ccccc3Cl)N(C)C(=O)c3ccco3)CC2)c1O (configuration not stated) |  | 0.575 |
| CCc1n[nH]c(C(=O)N2CCCC(CNS(=O)(=O)c3ccc(OC)cc3)C2)c1C (configuration not stated) | 0.883 |  |
| Cc1ccc2c(c1)CN(Cc1cccc(OCCO)c1)CC(c1ccsc1)O2 (configuration not stated) |  | 0.084 |
| O=C(c1csc2nc(-c3ccc(C(F)(F)F)cc3)cn12)N1CCCC(CO)C1 (configuration not stated) | 0.807 |  |
| Cn1cc(CN2CCC(Oc3ccc(C(=O)NC4CCCC4)cc3Cl)CC2)cn1 | 1.12 |  |
| COc1ccc2c(c1)SC(c1ccc(F)c(F)c1)CCN2CCCC(F)(F)F (configuration not stated) |  | 0 |
| Cc1cccc(C(=O)N2CCCC2C(=O)Nc2ccc(-n3ccnc3C)cc2)n1 (configuration not stated) |  | 0.858 |
| COc1cc(C)ccc1OCc1nc(C(=O)N(C)Cc2ccc(C)o2)co1 | 0.948 |  |
| CN(C(=O)c1cc(NS(C)(=O)=O)cc2ncn(CCc3ccccc3)c12)C(C1CC1)C1CC1 |  | 0.001 |

Part of the list above in order of formula weight, rising:

| SMILES | bacterial growth OD600 (polymyxin B 1 µg/mL) | bacterial growth OD600 (polymyxin B 0.75 µg/mL) |
| --- | --- | --- |
| COc1ccc(NC2CCCN(C(=O)CCc3cccc(Cl)c3)C2)cc1 (configuration not stated) | 0.206 |  |
| Cc1nc(CN(C)C(=O)c2cc(Cn3c(C)nc4ccccc43)on2)cs1 | 0.975 |  |
| COc1cccc(N2C(=O)CN(C(=O)c3csc4c3CCCC4)CC2C)c1 (configuration not stated) |  | 0.719 |
| O=C(c1csc2nc(-c3ccc(C(F)(F)F)cc3)cn12)N1CCSCC1 | 0.007 |  |
| Cc1cccc(-c2cnc(C)nc2C2CCCN(C(=O)c3ccc(C)c(C)c3)C2)c1 (configuration not stated) |  | 0.98 |
| COc1ccccc1N1CCN(C(=O)Cn2nnnc2CN2CCOCC2)C(C)C1 (configuration not stated) |  | 0.786 |
| CCc1n[nH]c(C(=O)N2CCCC(CNS(=O)(=O)c3ccc(OC)cc3)C2)c1C (configuration not stated) | 0.883 |  |
| CN(C(=O)c1cc(NS(C)(=O)=O)cc2ncn(CCc3ccccc3)c12)C(C1CC1)C1CC1 |  | 0.001 |
| COc1cccc(CN2CCC(C(Cc3ccccc3Cl)N(C)C(=O)c3ccco3)CC2)c1O (configuration not stated) |  | 0.575 |
